Test results reported in publication PMC5752522.
Results are given in words; binding and its absence hold for the method and conditions named. In cells and extracts the contact can be indirect. Some entries that bind do so weakly or less than the wild type.

Amino acid sequences for entries named in this document (tags omitted).
UniProt P46937: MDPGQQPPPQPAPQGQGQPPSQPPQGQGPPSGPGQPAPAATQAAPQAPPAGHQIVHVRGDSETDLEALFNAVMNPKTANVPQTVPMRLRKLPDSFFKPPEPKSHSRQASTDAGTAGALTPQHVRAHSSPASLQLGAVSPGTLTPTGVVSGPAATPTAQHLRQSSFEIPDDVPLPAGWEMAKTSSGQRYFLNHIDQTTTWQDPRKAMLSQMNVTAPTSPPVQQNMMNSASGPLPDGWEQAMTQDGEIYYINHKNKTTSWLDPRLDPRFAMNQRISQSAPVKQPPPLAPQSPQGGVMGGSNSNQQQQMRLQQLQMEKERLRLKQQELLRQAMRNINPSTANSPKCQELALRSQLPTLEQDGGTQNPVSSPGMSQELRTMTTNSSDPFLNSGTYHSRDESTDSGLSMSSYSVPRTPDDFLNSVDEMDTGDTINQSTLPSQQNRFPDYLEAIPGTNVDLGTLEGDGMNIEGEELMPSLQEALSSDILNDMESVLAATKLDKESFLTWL
UniProt Q13887: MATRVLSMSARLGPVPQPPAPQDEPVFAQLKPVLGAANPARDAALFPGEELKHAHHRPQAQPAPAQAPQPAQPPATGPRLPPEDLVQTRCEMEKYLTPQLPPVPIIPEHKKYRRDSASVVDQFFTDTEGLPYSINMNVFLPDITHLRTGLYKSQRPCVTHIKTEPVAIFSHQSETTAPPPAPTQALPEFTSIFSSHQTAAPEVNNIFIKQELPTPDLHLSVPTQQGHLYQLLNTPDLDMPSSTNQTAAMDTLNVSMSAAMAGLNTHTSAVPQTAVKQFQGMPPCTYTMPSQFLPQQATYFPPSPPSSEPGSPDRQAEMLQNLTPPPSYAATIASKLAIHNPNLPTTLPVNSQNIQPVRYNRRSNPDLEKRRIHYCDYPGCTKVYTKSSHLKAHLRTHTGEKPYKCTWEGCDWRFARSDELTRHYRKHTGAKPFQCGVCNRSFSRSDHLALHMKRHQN

Legend:
[1] = target: YAP1 (human (endogenous in HT-29 and Caco-2)) (UniProt P46937); assay: co-IP; lysates of HT-29 and Caco-2 cells immunoprecipitated with anti-KLF5 (Santa Cruz sc-22797) or anti-YAP1 (Cell Signaling 14074) antibody, BeaverBeads Protein A/G Immunoprecipitation Kit, SDS/PAGE and Western blotting
[2] = target: Krüppel-like factor 5 (KLF5) (human (endogenous in HT-29 and Caco-2)) (UniProt Q13887); assay: as above

Substance	binding [1]	binding [2]
Krüppel-like factor 5 (KLF5) (from UniProt Q13887 1-457)	binds	–
YAP1 (from UniProt P46937 1-504)	–	binds
